For at least one compound, name, drawing or mass did not settle the structure.
Legend:
[1] = tested on: rodents; details: positive when at least one in vivo assay (MN, CA) positive; equivocal considered positive; cited from earlier work
[2] = tested on: HepG2 cell; test: Class prediction of in vivo genotoxicity by the method of the invention (Ames stratification plus three-gene expression in HepG2); details: for At least ⅔ genes +?: per single measurement, GTX when at least two out of three genes above reference value

Row | Compound | In vivo GTX [1] | Average result over three measurements [2] | At least ⅔ genes +? [2]
1 | OCCCl [2-Cl] | − |  | 
2 | ClCc1ccccn1 [2CMP] | − |  | 
3 | CC(=O)Nc1cccc2c1-c1ccccc1C2 [4AAF] | − |  | 
4 | Nc1ccccc1C(=O)O [AnAc] | − | NGTX | NGTX
5 | ClC(Cl)(Cl)Cl [CCI4] |  | NGTX | 
6 | Clc1ccc(C(c2ccc(Cl)cc2)C(Cl)(Cl)Cl)cc1 [DDT] | − | NGTX | NGTX
7 | CCCCC(CC)COC(=O)c1ccccc1C(=O)OCC(CC)CCCC (centres unmarked) [DEHP] | − |  | 
8 | CCOP(=S)(OCC)Oc1cc(C)nc(C(C)C)n1 [DZN] | − | NGTX | NGTX
9 | OC[C@@H](O)[C@@H](O)[C@H](O)[C@H](O)CO [Dman] | − | NGTX | NGTX
10 | CCc1ccccc1 [EthylB] | − | NGTX | NGTX
11 | CCOc1ccc(NC(C)=O)cc1 [Phen] | − | NGTX | NGTX
12 | Clc1cc2c(cc1Cl)Oc1cc(Cl)c(Cl)cc1O2 [TCDD] | − | NGTX | NGTX
13 | CCCCCCCCCCCCCC(=O)O[C@@H]1[C@@H](C)[C@@]2(O)[C@@H](C=C(CO)C[C@]3(O)C(=O)C(C)=C[C@@H]23)[C@H]2C(C)(C)[C@]12OC(C)=O [TPA] | − | NGTX | NGTX

— patent publication US9822414B2, “In vitro method for predicting in vivo genotoxicity of chemical compounds” (priority 2011, dated 2017)
